This passage reports binding results from article PMC10743813.

Chains of the proteins cited; added tags and fusions are not shown. Lines headed by an entry give the natural chain unless they say otherwise; changes in a name come on top.
UniProt Q23K54: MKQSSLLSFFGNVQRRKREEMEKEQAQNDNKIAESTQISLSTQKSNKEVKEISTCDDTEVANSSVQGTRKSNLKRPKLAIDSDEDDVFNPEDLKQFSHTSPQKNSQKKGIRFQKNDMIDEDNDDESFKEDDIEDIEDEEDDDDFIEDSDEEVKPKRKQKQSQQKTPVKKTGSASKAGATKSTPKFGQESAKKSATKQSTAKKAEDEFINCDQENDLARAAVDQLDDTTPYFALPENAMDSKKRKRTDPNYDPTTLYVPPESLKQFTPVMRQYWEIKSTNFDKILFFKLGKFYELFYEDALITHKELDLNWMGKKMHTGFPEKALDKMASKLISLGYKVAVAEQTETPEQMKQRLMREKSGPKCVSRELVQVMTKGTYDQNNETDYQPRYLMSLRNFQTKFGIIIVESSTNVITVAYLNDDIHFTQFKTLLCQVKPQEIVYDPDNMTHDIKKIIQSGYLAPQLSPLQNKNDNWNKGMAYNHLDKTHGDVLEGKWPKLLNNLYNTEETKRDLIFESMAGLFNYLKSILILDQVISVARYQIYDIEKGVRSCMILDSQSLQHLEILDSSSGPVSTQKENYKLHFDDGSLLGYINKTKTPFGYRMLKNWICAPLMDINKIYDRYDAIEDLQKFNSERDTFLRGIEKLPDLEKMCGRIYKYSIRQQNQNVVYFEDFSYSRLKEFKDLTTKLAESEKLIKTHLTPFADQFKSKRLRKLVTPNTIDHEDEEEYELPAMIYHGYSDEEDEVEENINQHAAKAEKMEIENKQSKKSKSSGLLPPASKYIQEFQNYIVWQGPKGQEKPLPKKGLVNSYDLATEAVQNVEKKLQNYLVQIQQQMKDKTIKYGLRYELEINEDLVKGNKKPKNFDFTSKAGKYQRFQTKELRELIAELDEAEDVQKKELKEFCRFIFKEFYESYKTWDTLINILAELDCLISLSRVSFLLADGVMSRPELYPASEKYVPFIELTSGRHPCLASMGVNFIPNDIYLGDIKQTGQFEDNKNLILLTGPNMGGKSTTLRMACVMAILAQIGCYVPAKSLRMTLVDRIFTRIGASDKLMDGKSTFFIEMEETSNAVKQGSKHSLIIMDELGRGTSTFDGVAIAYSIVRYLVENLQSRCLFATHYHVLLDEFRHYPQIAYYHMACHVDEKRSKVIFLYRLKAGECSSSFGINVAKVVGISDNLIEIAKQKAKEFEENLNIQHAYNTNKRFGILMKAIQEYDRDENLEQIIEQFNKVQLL

Results are given in words; binding and its absence hold for the method and conditions named. In cells and extracts the contact can be indirect. Here binding means that the protein was enriched with, or labelled near, the bait; the list need not be complete.

B1: TTHERM_000079948 (protein, UniProt W7XIA6 1-304)
chain: METALHLAKTRKKGKTNVRELGFIRVNTFVSNKSNQRVCKLNQQSLNQFYSGIIRIKEDNLKKSKVLIPNYFTQPSILCHLLLYNFKTRTVKSNQKYLKTWLISIIYISINIISLSELRVNNNLLRSNNQQQYVYGFVYYKNLIFKYTVFIANKNHKFQQKQFQLYQFTIILCLHLNNQFLCNQKSCTVKFRKDCRLFLIITFKICKDFLIDNQFCTEKQRLKIKVTKIYNQINYLSNCYQVVIQIGKINQIKNVFINKQINFKKQILQCILCFTKINKTRFIFNQKQQVQQFFNKCINEKIKY
B2: TTHERM_00112690 (protein, UniProt Q22ZA2 1-801)
chain: MPENDIFPNGLVFEKMFHYIWTQSDMFEQKLNVNLPQTVIFKNSLPIFWYFTDKNGQIKKKKTEKHTPENIYEVFTKKIPKCGVVAQLLYPTTCENEFNPRTNINPKGQISGLHYIDSTTEAKIRYLTEEDLAKFLNGEMQISSGVLQQFIEPATLHNDSIQVVYTPRVVLMNKRVNTKNLYNQNVDIYERCCTFDGPDYFSQNLQMSGPISKEMTEQVDRIMGHLETISYGLFNILKIHLYFKIDANRKIWFLWAGGVSMHNISDKSNSQKPQQVISQPEIQIPDIHQSVSIKRKPIQLQKELFCLKCNKKGRSVDFFELKFSDLLNEYDNTETQKITAQNPYNQNKVFGKNQREDMLGQTLTNTFMEFKQMNQTGNYSSSKKNHEEQLKKQAEKHTVYKNKEIPSFFTLLFPKLDTENFSQISQTFYFKNQKIMVCRECYLEFSSLYQKQIETFKQQNSDYSSTATSFSDKRSTNRSNSYMKFQNIQSEQKKINQEFQKKLRSLSEDKLKSNEKIQKLFKLAKLGKAEDQIEQENKKSNLSLNENQKDKSDYCNLDTSNSGYNFDDKSHNTAQFFKNDEPSSTMKTIQKQNENTIQETLKLINEIYSNKNIMNTNQKLQNRPKPYQTYKYNQIDTAKLKQKIQSAISLKSDIFNKQKTTNLTEQTTNHTEPNLTNEELKTQKTDFSAITQKKEQIPQKDISKIIATNPYKFSYYEVLKKQELSPKNVQESKTDSEPLKPRIIVRSKRAHSQINFLPKDTPSKQPSNQSSQKRLLRTTSSSIQRFPVKMISERHSENSNI
B3: RAB11B (RAB GTPase 11B) (protein, UniProt E1CAZ3 1-214)
chain: MASKNEDEYDFLFKIVLIGDSGVGKTNLLSRFTKNEFNMDSKPTIGVEFATKTVITENKYIKAQIWDTAGQEKYRAITNAYYRGAVGALTLYDITKQQTFDNVKKWLHELREYADANIICMLIGNKCDLQEMRQVKTEDAAKFAEENNLAFMETSAAQAINVDQAFQKLITEIYNNLKTRPNEEKKKAQPQQNGNNIIKDFKQPTQAEKEKKCC
B4: TTHERM_00085290 (protein, UniProt Q236R9 1-254)
chain: MKIDSNLVVFITGASSGFGIQVGLDLLKKGCKCYLTDKDDIELQLISQYSSSQVVFRNLDVTNEEGIKKAIEDCVMTFGHIDAVLNSAGIGSLGCITSGDCNNKALERCLNINVIGTFNVSKYAALQMAQQQKQNKERKDYAIINVGSIASVNALERGTIYGASKGAVLSMTIPMARDLGKYGIRVVCICPGFFNTNMVKQIPEENLKNLAKLNCLGRHGEPSEFSSAFQAIIENTFINGTHFQLDSQMGIPNL
B5: TTHERM_00355660 (protein, UniProt Q22Y05 1-318)
chain: MHAINYLTNLEKDINFNLLKFVLILKNYFYKMIARSFQRSLLYQLKQKPINSFASLGVFNKYKFSTSQQDGKKQELEEKSRYIMNELKDKDNQGTGSMRFSREKNFQSYVIYEHHMDQKEIRLKIRLRLLSSSIWFGAGVLVFHYVHPLAAFIPLIIMSRSIMSYKMGSNYTKKLINKVQLSEDKASVKLYALSGDIYECAIEEMDFQGINDLSDAKSNDQTLKEDQNSELSKLKQSSFLAMFDTTDKQGNYLKDLKILFNDQLVNMENAELLTKILRGDKDAVLSFQYVNEYDNSSDEISDEKLEEQLQEEIRKRKK
B6: TTHERM_00357080 (protein, UniProt Q22XW3 1-219)
chain: MLNKVVKRLFSYKSTIPATLPQLKFEYNELEPVLTANLLKFHHGKHHQAYVNNLNAIYEQISDAQKKNDVHKIAQLQSGLRFNLGGHINHAIYWDNLAPVSRGGGVFPDQNSPLTKAIQEKWGSYENFIQIFNGRTAAIQGSGWGWLGYDTVSKSLKMFELGNQDMPEWNSVIPLLTIDVWEHAYYLDYQNLRPKYLTEIWKVVNWQEVERRYLDAIKA
B7: TTHERM_01076960 (protein, UniProt Q22C43 1-679)
chain: MGDQIQNNNMITMRPPKIKNKAANPIQITAEQLLQRAFLDRKKPFVEPDYRIRDEDDLNEIKQRKRKEFENKIRQQRFHMGHWIKYAVFEEGLQEFRRARSVYERALEVDYKNISLWLKYIEMEMRHKFINHARNVFERAIELLPRVDQFWYKYAYMEEMIANYVAARNIFQRWMEWRPEEKAWLAYLSFEQRMGEVQNARQVMYNYMDAFPRLKTYLKVIKFEIKLGYKQEARQLFEKTLEELGQEALKEEYFVNFAKFEIRNQEYDRAREIFKFGLENIPKEKSKKLYEEYLSFEKQHGTKDDIDELIFNERRLHYKLLIAENKMNYDAWFDLVNLEIATGNSARTRDTFEHAVKNVPLAQEKRLWRRYIYLWYNYATFEEMEGNDPVKAKEVYERALKLVPHSKFTFSKLWVMYAHFQVRHENLEAARKIFGTAIGKCPNDKLFREYIDLEYKLANIDRVRKIYEKYIEVFPDNPDPFIQWAQLEKSLPELERYRAIFDLAINRPTMNMPEKVWKAYIDNEIELEENENVRNLFEELLKRSKNVKIWLSYASFEAKIDDREKCRAVYTRAEEYFKAEKLKEERAIILESWRKTELQFGDAQFIAQINAKQPQRVKKERKIVIAEGDIEEEAGKEEYYDYIFPGEEEGQNLTKLIQKAKQKALEKKLKEQAENQQNA

This test deals with Msh6^Tt-3HA (T. thermophila) (UniProt Q23K54). The test can be described thus: affinity purification with mass spectrometry; 8 h of conjugation; cells lysed by sonication on ice in PBS; Msh6^Tt-3HA precipitated by its HA tag (Pierce HA-Tagged Magnetic IP/Co-IP kit), washes TBS and TBS-T; LC-MS/MS, MaxQuant iBAQ; WT lysate without HA tag as blank control; hits: iBAQ WT/iBAQ Msh6^Tt-3HA <= 0.1.
Turning to B1, the binding entry is reported as “binds”. The same measure for B2: “binds”. With B3 the entry was “binds”; with B4, “binds”.

As to B5, the binding result is reported as “binds”. The same measure for B6: “binds”.

Consider B7, for which the binding result is given as “binds”.
